Laboratory results published in article PMC12060747.

Molecular target: FLAG‐4×Myc‐tagged AMV CP (alfalfa mosaic virus)
Assay: affinity purification with mass spectrometry; FLAG‐4×Myc‐CPAMV coexpressed with NPR1‐YFP in N. benthamiana leaves, affinity purified at 2 dpi, MS/MS; control: FLAG‐4×Myc tag coexpressed with NPR1‐YFP

B1: 26S proteasome subunit alpha type 1 (PAF1) (protein, UniProt Q8H1Y2 1-274)
chain: MFRNQYDTDVTTWSPAGRLFQVEYAMEAVKQGSAAIGLRSKTHVILACVNKANSELSSHQKKIFKVDDHIGVAIAGLTADGRVLSRYMRNECINYSYAYESPLPVGRLVVQLADKAQVCTQRSWKRPYGVGLLVGGLDESGAHLYYNCPSGNYFEYQAFAIGSRSQAAKTYLERRFETFMDSSRETLLKDALFALRETLQGEKLTSTNCTVAVVGVGEAFHMLDKETIQALINEFEIAGEEAPAAAPDEAGSDEPAAAPEEGAPADQGAAPMDI
  binding: binds

No constants are given. Whether binding was seen depends on the method and setting. Binding seen in cells or lysates may run through a third protein. A yes stands for co-enrichment or nearness to the bait. Other partners may have been found.
